Molecular target: T1, NAT-1 (Homo sapiens, UniProt P18440)
T1 sequence (P18440 1-290): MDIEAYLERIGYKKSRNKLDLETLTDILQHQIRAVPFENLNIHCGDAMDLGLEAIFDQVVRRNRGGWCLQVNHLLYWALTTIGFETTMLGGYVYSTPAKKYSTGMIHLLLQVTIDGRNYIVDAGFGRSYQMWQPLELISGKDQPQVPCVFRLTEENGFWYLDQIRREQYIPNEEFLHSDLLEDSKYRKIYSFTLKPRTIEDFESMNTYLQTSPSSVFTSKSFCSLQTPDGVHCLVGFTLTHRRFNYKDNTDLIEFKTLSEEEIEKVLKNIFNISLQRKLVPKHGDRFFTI
Settings: human volunteer; SMX 500 mg every 12 hours, PAS 4 g every 8 hours on days 4 and 5; FIG. 4
Protocol: On the fourth and fifth days, PAS was also administered at its standard dose of 4 g every 8 hours.

Cc1cc(NS(=O)(=O)c2ccc(N)cc2)no1 [SMX, sulfamethoxazole]
plasma concentration of SMX, Day 5 (with PAS) vs Day 3 (baseline): higher plasma concentrations of SMX on Day 5 than on Day 3
